Experimental data: PubChem BioAssay AID1259254 (NCATS, 2017)
Here is an unselected part of about 59,000 reagents tested. Of all reagents, about 1,550 (2.6%) were called active. 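G2 share is only a proxy for re-replication; each gene was hit by three separate siRNAs, and active genes were retested.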 Reagents against one gene are numbered here. Not all columns of the deposit are shown. Not given: the amount of reagent.

Purpose: 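Gene knock-downs that lead to re-replication, shown by excess G2 DNA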 (primary screen)
Cells: human HCT116 colorectal cancer cells
Reagents: single siRNA against human genes
Timing: 3 days
Measured: 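Imaged Hoechst DNA stain sorts each cell into a cycle phase by DNA amount; per plate, G2 fraction set to 0% for non-targeting and 100% for GMNN siRNA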
Scale: G2 robust z-score: higher = more G2 cells, more excess DNA replication
Call rule: 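An siRNA counts as active if its G2 robust z-score lies at least 5 MADs above the screen median; here such calls match roughly 38% of GMNN control or more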

With knock-down of HS6ST3 (GeneID 266722) #1 the results were G2 robust z-score 0.314; inactive.
After knock-down of HS6ST3 (GeneID 266722) #2, the record shows G2 robust z-score 0.304; inactive.
For HS6ST3 (GeneID 266722) #3, the entry reads G2 robust z-score -0.741; inactive.
Against TRAM1L1 (GeneID 133022) #1, the entry reads G2 robust z-score -0.777; inactive.
For TRAM1L1 (GeneID 133022) #2, the values are G2 robust z-score -0.328; inactive.
Depletion of TRAM1L1 (GeneID 133022) #3 came out at: G2 robust z-score -0.573; inactive.
After knock-down of UBA5 (GeneID 79876) #1, the record shows G2 robust z-score -0.326; inactive.
UBA5 (GeneID 79876) #2 showed G2 robust z-score 0.673; inactive.
Depletion of UBA5 (GeneID 79876) #3 resulted in: G2 robust z-score 0.621; inactive.
Knock-down of CCDC81 (GeneID 60494) #1 gave: G2 robust z-score 1.99; inactive.
For CCDC81 (GeneID 60494) #2 the deposit lists G2 robust z-score 0.24; inactive.
Against CCDC81 (GeneID 60494) #3 the deposit lists G2 robust z-score -0.296; inactive.
NONO (GeneID 4841) #1 scored G2 robust z-score 1.8; inactive.
Silencing of NONO (GeneID 4841) #2 came out at: G2 robust z-score -0.536; inactive.
NONO (GeneID 4841) #3 gave G2 robust z-score 2.05; inactive.
HNRNPA1P35 (GeneID 645691) #1 gave G2 robust z-score 0.272; inactive.
HNRNPA1P35 (GeneID 645691) #2 gave G2 robust z-score -0.052; inactive.
After knock-down of HNRNPA1P35 (GeneID 645691) #3, the record shows G2 robust z-score -0.685; inactive.

Sorted by “G2 robust z-score” (ascending): 2 of the entries above
UBA5 (GeneID 79876) #3 | G2 robust z-score: 0.621; call: inactive
CCDC81 (GeneID 60494) #1 | G2 robust z-score: 1.99; call: inactive
